Experimental data from article PMC10516997.

By UniProt entry, the sequences of proteins in these tests, tags left out.
UniProt Q9UKL0: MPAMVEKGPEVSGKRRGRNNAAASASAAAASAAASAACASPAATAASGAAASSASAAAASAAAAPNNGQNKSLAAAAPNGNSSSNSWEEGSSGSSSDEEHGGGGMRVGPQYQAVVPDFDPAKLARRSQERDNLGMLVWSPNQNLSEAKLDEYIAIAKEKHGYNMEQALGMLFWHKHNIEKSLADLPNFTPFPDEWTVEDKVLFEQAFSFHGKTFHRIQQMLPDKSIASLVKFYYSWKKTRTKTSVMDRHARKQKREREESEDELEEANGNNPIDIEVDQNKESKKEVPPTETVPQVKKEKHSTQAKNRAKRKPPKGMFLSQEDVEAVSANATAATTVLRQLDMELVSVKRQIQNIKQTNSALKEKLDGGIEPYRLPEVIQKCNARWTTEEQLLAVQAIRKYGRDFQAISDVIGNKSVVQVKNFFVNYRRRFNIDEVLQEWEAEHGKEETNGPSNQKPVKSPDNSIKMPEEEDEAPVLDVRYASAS

Target: Flag-RCOR1 (UniProt Q9UKL0)
Test: affinity purification with mass spectrometry; H526 cells stably expressing Flag-tagged E2F7 or RCOR1 lysed in 1% NP40 buffer; supernatant incubated with M2 Flag resin overnight, washed with lysis buffer, eluted with 3XFlag peptide; background of Flag vector control subtracted

binding: binds
B1: endogenous E2F7 (protein, UniProt Q96AV8 1-911)
chain: MEVNCLTLKDLISPRQPRLDFAVEDGENAQKENIFVDRSRMAPKTPIKNEPIDLSKQKKFTPERNPITPVKFVDRQQAEPWTPTANLKMLISAASPDIRDREKKKGLFRPIENKDDAFTDSLQLDVVGDSAVDEFEKQRPSRKQKSLGLLCQKFLARYPSYPLSTEKTTISLDEVAVSLGVERRRIYDIVNVLESLHLVSRVAKNQYGWHGRHSLPKTLRNLQRLGEEQKYEEQMAYLQQKELDLIDYKFGERKKDGDPDSQEQQLLDFSEPDCPSSSANSRKDKSLRIMSQKFVMLFLVSKTKIVTLDVAAKILIEESQDAPDHSKFKTKVRRLYDIANVLTSLALIKKVHVTEERGRKPAFKWIGPVDFSSSDEELVDVSASVLPELKRETYGQIQVCAKQKLARHGSFNTVQASERIQRKVNSEPSSPYREEQGSGGYSLEIGSLAAVYRQKIEDNSQGKAFASKRVVPPSSSLDPVAPFPVLSVDPEYCVNPLAHPVFSVAQTDLQAFSMQNGLNGQVDVSLASAASAVESLKPALLAGQPLVYVPSASLFMLYGSLQEGPASGSGSERDDRSSEAPATVELSSAPSAQKRLCEERKPQEEDEPATKRQSREYEDGPLSLVMPKKPSDSTDLASPKTMGNRASIPLKDIHVNGQLPAAEEISGKATANSLVSSEWGNPSRNTDVEKPSKENESTKEPSLLQYLCVQSPAGLNGFNVLLSGSQTPPTVGPSSGQLPSFSVPCMVLPSPPLGPFPVLYSPAMPGPVSSTLGALPNTGPVNFSLPGLGSIAQLLVGPTAVVNPKSSTLPSADPQLQSQPSLNLSPVMSRSHSVVQQPESPVYVGHPVSVVKLHQSPVPVTPKSIQRTHRETFFKTPGSLGDPVLKRRERNQSRNTSSAQRRLEIPSGGAD

No constants are given. Whether binding was seen depends on the method and setting. In cells and extracts the contact can be indirect. These calls come from enrichment with a bait or labelling near it, and not all partners need be listed.
